From the supplement of paper PMC4604168 (melanoma cell lines) come the findings set out here.

Some of the results follow. Repeats are few or missing, and single values can be far off.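 Imaging used 1,536-well plates; nuclei positive for cleaved PARP by antibody were divided by total DNA-stained nuclei to yield the apoptosis fraction. Doses for screening kept most cells viable, and cell lines differ markedly in resting and induced cleaved-PARP levels.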

For the assay, the system named is IPC-298. Description: cleaved PARP positive nuclei fraction relative to DMSO control; melanoma cells; higher = more apoptosis. To be noted: library dose: low library concentration; 72 h.
Consider `CS(=O)(=O)c1ccc(C(=O)Nc2ccc(Cl)c(-c3ccccn3)c2)c(Cl)c1` [vismodegib] + OCc1c[nH]c2ccccc12 [Indole-3-carbinol] (first compound 1 µM, partner dose 0.8 µM), for which the “cleaved PARP positive nuclei fraction” value worked out at 90.4%.
For `COc1ccc(C2=N[C@@H](c3ccc(Cl)cc3)[C@@H](c3ccc(Cl)cc3)N2C(=O)N2CCNC(=O)C2)c(OC(C)C)c1` [Nutlin-3] + NC1(c2ccc(-c3nc4ccn5c(=O)[nH]nc5c4cc3-c3ccccc3)cc2)CCC1 [MK2206] (first compound 0.1 µM, partner dose 0.4 µM) the value was 81.4%.
The value for `COc1ccc(C2=N[C@@H](c3ccc(Cl)cc3)[C@@H](c3ccc(Cl)cc3)N2C(=O)N2CCNC(=O)C2)c(OC(C)C)c1` [Nutlin-3] + Clc1ccc(Nc2nnc(Cc3ccncc3)c3ccccc23)cc1 [vatalanib] (first compound 0.1 µM, partner dose 2 µM) was 126%; that for `Cn1sc(=O)n(Cc2ccccc2)c1=O` + CN(c1ncccc1CNc1nc(Nc2ccc3c(c2)CC(=O)N3)ncc1C(F)(F)F)S(C)(=O)=O [PF562271] (first compound 0.4 µM, partner dose 0.08 µM) was 123%; that for `Cn1cnc2c(F)c(Nc3ccc(Br)cc3Cl)c(C(=O)NOCCO)cc21` [selumetinib] + CNC(=O)c1cc(Oc2ccc(NC(=O)Nc3ccc(Cl)c(C(F)(F)F)c3)cc2)ccn1 [sorafenib] (first compound 0.015 µM, partner dose 0.4 µM) was 92.8%.
In the case of `NC1(c2ccc(-c3nc4ccn5c(=O)[nH]nc5c4cc3-c3ccccc3)cc2)CCC1` + CCCS(=O)(=O)Nc1ccc(F)c(C(=O)c2c[nH]c3ncc(Cl)cc23)c1F [PLX4720] (first compound 0.4 µM, partner dose 0.08 µM), the “cleaved PARP positive nuclei fraction” value worked out at 29.5%.
The value for `NC(=O)c1ccc(N(C(N)=O)c2c(F)cccc2F)nc1-c1ccc(F)cc1F` + C#Cc1cccc(Nc2ncnc3cc(OCCOC)c(OCCOC)cc23)c1 [erlotinib] (first compound 0.4 µM, partner dose 0.8 µM) was 85.4%; that for `C[C@@H](N)c1ccc(C(=O)Nc2ccnc3[nH]ccc23)cc1` + Cn1sc(=O)n(Cc2ccccc2)c1=O [TDZD-8] (first compound 0.4 µM, partner dose 0.4 µM) was 84.3%; that for `CS(=O)(=O)c1ccc(C(=O)Nc2ccc(Cl)c(-c3ccccn3)c2)c(Cl)c1` [vismodegib] + CCCCCCCCc1ccc(CCC(N)(CO)CO)cc1 [fingolimod] (first compound 1 µM, partner dose 2 µM) was 49%.
For `Cn1cnc2c(F)c(Nc3ccc(Br)cc3Cl)c(C(=O)NOCCO)cc21` [selumetinib] + C#Cc1cccc(Nc2ncnc3cc(OCCOC)c(OCCOC)cc23)c1 [erlotinib] (first compound 0.015 µM, partner dose 0.8 µM) the value was 196%; for `CC1(C)CCC(c2ccc(Cl)cc2)=C(CN2CCN(c3ccc(C(=O)NS(=O)(=O)c4ccc(N[C@H](CCN5CCOCC5)CSc5ccccc5)c(S(=O)(=O)C(F)(F)F)c4)cc3)CC2)C1` + CS(=O)(=O)CCNCc1ccc(-c2ccc3ncnc(Nc4ccc(OCc5cccc(F)c5)c(Cl)c4)c3c2)o1 [lapatinib] (first compound 0.4 µM, partner dose 0.8 µM), 87.6%.
The value for `CC1(C)CCC(c2ccc(Cl)cc2)=C(CN2CCN(c3ccc(C(=O)NS(=O)(=O)c4ccc(N[C@H](CCN5CCOCC5)CSc5ccccc5)c(S(=O)(=O)C(F)(F)F)c4)cc3)CC2)C1` + O=C(O)[C@@H]1[O][Sb](=[O])([O][Sb]2(=[O])[O][C@H]([C@H](O)CO)[C@H](O)[C@H](C(=O)O)[O]2)[O][C@H]([C@H](O)CO)[C@@H]1O [stibogluconate] (first compound 0.4 µM, partner dose 2 µM) was 132%; that for `CC1(C)CCC(c2ccc(Cl)cc2)=C(CN2CCN(c3ccc(C(=O)NS(=O)(=O)c4ccc(N[C@H](CCN5CCOCC5)CSc5ccccc5)c(S(=O)(=O)C(F)(F)F)c4)cc3)CC2)C1` + Nc1ccn([C@@H]2O[C@H](CO)[C@@H](O)C2(F)F)c(=O)n1 [gemcitabine] (first compound 0.4 µM, partner dose 0.0004 µM) was 151%.
